In the assay the target is T1, zCachd1_GFP (zebrafish) (UniProt E7F5Q0).
T1 sequence: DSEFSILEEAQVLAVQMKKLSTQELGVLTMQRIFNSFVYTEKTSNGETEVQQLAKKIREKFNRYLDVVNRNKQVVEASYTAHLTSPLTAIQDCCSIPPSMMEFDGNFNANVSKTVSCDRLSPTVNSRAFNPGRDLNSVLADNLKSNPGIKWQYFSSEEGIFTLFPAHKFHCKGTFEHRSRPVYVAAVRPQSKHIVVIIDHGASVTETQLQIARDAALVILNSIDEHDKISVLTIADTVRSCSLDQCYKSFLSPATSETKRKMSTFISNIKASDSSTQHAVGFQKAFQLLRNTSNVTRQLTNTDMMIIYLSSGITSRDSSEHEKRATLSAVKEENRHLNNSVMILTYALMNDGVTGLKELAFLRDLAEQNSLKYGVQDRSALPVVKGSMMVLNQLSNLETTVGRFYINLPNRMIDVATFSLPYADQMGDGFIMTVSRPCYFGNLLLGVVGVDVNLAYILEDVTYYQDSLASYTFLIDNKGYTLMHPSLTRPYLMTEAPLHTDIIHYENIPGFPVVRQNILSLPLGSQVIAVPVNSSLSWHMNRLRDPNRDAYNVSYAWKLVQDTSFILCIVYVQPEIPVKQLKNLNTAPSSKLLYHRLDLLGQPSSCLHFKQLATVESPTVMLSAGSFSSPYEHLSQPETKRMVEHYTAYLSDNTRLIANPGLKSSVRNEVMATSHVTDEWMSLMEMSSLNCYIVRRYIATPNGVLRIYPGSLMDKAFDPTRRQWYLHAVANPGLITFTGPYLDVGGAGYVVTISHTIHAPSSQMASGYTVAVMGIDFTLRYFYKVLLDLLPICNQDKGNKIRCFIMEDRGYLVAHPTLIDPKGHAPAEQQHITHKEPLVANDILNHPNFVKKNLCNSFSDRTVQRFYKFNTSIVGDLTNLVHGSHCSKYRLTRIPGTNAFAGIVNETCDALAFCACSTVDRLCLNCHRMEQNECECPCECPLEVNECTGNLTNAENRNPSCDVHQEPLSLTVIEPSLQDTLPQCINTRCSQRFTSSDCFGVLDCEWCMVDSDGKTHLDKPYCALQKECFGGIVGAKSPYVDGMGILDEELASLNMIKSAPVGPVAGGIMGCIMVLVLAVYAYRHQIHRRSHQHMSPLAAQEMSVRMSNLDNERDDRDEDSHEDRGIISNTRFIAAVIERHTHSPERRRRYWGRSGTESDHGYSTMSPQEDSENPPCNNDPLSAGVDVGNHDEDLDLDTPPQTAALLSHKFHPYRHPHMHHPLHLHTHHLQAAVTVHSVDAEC
Briefly: co-IP; reverse co-IP: tsA-201 cells co-transfected with Cachd1_GFP, β1b and CaV2.2 (2:1:2); as the other co-IP but 150 mM NaCl in the co-IP buffer and two washes with 0.1% digitonin; IP with anti-GFP Ab; western blot. On the technique in general: A western blot detects proteins with antibodies after separation by electrophoresis.

Protein sequences, listed by entry. Tags and fused reporters are not part of them.
UniProt Q05152: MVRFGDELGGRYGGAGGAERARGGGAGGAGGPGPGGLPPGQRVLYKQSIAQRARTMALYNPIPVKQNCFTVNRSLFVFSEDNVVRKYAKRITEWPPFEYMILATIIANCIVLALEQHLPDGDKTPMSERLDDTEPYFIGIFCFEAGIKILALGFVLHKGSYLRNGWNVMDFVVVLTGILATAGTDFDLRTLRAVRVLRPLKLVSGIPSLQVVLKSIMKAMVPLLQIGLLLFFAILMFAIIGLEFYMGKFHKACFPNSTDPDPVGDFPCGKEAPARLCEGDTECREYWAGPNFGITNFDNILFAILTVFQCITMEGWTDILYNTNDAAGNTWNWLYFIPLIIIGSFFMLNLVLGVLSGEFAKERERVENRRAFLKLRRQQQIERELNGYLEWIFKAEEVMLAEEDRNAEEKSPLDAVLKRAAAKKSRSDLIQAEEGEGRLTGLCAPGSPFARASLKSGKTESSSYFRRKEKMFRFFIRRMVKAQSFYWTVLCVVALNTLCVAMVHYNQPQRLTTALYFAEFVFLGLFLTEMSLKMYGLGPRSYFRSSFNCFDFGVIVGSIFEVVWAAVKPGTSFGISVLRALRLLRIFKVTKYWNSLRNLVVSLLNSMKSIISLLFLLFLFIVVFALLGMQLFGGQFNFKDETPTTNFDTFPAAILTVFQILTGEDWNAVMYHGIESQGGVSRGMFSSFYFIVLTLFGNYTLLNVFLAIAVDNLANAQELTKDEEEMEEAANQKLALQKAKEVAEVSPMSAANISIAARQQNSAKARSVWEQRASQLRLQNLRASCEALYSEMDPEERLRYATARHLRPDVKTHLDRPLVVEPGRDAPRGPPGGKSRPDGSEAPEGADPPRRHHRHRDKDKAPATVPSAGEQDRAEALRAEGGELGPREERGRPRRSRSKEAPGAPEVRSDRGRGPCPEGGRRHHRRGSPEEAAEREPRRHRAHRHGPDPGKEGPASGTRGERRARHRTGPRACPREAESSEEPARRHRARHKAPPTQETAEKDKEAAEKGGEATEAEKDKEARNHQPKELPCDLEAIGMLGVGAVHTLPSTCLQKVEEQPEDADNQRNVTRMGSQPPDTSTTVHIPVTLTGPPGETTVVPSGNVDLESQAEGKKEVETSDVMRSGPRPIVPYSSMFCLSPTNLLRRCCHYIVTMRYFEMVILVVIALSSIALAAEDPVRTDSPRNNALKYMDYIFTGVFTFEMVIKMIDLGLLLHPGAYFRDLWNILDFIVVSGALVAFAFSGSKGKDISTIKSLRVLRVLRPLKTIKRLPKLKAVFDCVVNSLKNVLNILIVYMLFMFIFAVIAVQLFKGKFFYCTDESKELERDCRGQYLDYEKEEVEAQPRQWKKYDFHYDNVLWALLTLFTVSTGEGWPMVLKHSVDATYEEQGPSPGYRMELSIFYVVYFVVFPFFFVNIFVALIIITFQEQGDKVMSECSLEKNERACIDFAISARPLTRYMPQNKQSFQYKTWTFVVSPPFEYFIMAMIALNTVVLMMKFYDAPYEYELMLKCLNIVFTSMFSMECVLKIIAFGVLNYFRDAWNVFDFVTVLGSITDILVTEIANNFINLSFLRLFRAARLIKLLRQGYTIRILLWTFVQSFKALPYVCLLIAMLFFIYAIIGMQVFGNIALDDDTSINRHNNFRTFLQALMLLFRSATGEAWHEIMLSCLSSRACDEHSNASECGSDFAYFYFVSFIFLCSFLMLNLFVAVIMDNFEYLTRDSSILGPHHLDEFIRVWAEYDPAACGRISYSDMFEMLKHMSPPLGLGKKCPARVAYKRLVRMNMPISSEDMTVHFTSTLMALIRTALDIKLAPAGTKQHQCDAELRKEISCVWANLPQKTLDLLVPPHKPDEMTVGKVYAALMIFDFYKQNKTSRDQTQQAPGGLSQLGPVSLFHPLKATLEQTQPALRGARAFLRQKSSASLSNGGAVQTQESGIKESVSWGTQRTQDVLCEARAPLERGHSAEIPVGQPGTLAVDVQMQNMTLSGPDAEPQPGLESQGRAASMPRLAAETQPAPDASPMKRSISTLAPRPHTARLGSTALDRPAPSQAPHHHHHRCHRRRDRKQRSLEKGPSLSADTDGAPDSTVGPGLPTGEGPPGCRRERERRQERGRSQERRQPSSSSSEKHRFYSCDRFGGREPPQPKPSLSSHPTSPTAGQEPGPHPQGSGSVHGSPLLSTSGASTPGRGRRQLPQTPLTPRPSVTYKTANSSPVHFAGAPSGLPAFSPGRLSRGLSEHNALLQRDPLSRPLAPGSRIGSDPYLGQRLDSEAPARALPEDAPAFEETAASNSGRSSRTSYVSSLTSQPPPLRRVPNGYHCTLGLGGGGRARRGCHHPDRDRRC

These are yes or no findings as the source states them, for the method shown. In cells and extracts the contact can be indirect. Some entries that bind do so weakly or less than the wild type. Where a sequence is shown, tags or fusion partners need not be part of it.

In the case of CaV2.2-HA (from UniProt Q05152 1-2339), the binding result is “binds”.

(Values after publication PMC6231325.)
